# Experimental data: PMC7819943, “Rice protein-binding microarrays: a tool to detect cis-acting elements near promoter regions in rice”
# This is one part of the list.
# Biological target: T1, OsSMF1 (Oryza sativa, UniProt Q6ZLB0 1-436)
# T1 sequence: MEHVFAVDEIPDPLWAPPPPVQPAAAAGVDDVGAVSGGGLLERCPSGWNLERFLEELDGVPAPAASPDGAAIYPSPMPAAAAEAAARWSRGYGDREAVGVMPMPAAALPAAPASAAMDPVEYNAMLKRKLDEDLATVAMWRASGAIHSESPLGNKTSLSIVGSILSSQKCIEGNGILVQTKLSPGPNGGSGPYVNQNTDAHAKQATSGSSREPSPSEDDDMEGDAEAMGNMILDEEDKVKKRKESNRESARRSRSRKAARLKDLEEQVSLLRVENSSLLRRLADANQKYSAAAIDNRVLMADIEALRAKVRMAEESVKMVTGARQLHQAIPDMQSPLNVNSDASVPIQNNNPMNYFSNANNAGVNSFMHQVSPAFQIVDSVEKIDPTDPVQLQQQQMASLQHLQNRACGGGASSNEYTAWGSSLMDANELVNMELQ
# Experiment: protein-binding microarray (RPBM); PBS, 2% BSA, 51.3 ng/ul salmon testes DNA, 50 uM zinc acetate, 200 nM TF, 25 C, 1 h; high values mean tight binding
# Conditions: protein: recombinant; tags: N-terminal polyhistidine and DsRed monomer fusion (pET32a); chain copies: 2; label: CyDye5-dUTP incorporated in the synthesized complementary strand; 3' TTTTT single-stranded linker to array surface; dsDNA, one strand shown
# Outline: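 Binding signal is reported as fluorescence intensity per feature (arbitrary units) from an Axon 4000B scanner. Incubation used 200 nM of each Ni–NTA-purified, N-terminally polyhistidine- and DsRed-fused transcription factor from E. coli BL21-CodonPlus on a double-stranded custom Agilent array for 1 h at 25 °C, with 50 µM zinc acetate in the buffer, followed by washing.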
row,Sequence,binding signal
1,AAGCTACCGACGATGCATATGTTGCGCTCTGTAAATTAAACGGAGTCACCTAGTGCAG,11300 fluorescence intensity (a.u.)
2,GCCGCCGCCGCCGCCGCCGCCACCGCCACCGCCACCGCCACGGAGTCACCTAGTGCAG,3230 fluorescence intensity (a.u.)
3,GTCCTACTTGCTGACTGTTACTCCTTGTGGCTTCTAATGTCGGAGTCACCTAGTGCAG,4480 fluorescence intensity (a.u.)
4,CTCTACCGATGCCTCCAAGAAAACCCTAGCGCCGCTCCTCCGGAGTCACCTAGTGCAG,25700 fluorescence intensity (a.u.)
5,ACTGTGCTTCTTCTCCGTGTTGCCACCTCATCGCCATCGCCGGAGTCACCTAGTGCAG,13900 fluorescence intensity (a.u.)
6,GACGGCGCGGTCGACCCACCGTCTGCCACGTCAGCTTGCCCGGAGTCACCTAGTGCAG,50100 fluorescence intensity (a.u.)
7,TTATTCTACGTCAGTTAGAGTACCGCCCGCTTCATCTTCGCGGAGTCACCTAGTGCAG,3540 fluorescence intensity (a.u.)
8,AATAACAACACGTAAGGTACGGGTTTAGGTTGATTGCCCTCGGAGTCACCTAGTGCAG,5980 fluorescence intensity (a.u.)
9,TACATCAGCTTCACTAGATTAATTGGCACATCATCTGACTCGGAGTCACCTAGTGCAG,3210 fluorescence intensity (a.u.)
10,CCGGCAGTCCCCACACCTCACGCGCCTCCGGCGCCTCCCCCGGAGTCACCTAGTGCAG,3860 fluorescence intensity (a.u.)
11,GGGGAGGCGGGGTGGCGGGAGGGAAGGCGGCGGCGGCGCCCGGAGTCACCTAGTGCAG,6090 fluorescence intensity (a.u.)
12,TGGCATGCATGACACTAAAGTCATCATCTTAGTGCGCATACGGAGTCACCTAGTGCAG,3390 fluorescence intensity (a.u.)
13,CGCCGCCGCCAAAGCCGCAAGCCAAAAGGGGAACACCCGCCGGAGTCACCTAGTGCAG,27800 fluorescence intensity (a.u.)
14,CCTACAGAGTTGCCGTCTGCATGCCTGCGTGGAATCATCTCGGAGTCACCTAGTGCAG,5390 fluorescence intensity (a.u.)
15,CAACCAACCCCACCACGCGTCCTGCATAATCACCGTCCGTCGGAGTCACCTAGTGCAG,4220 fluorescence intensity (a.u.)
16,CAATGGGATGACTGCGGTGAATTGCAAGACCAATGGGATGCGGAGTCACCTAGTGCAG,3370 fluorescence intensity (a.u.)
17,GATTGGTGGCCTGCTTGACACCAACGCGCGCGCGCTGCCGCGGAGTCACCTAGTGCAG,32400 fluorescence intensity (a.u.)
18,AACTAATACGTAGGCACTATCGTGGCATGCCACATCAACGCGGAGTCACCTAGTGCAG,8150 fluorescence intensity (a.u.)
19,TGATGATATGGAGTGAAGCCTTGGTAGAATTTCTGGGAATCGGAGTCACCTAGTGCAG,22100 fluorescence intensity (a.u.)
20,CATCACAGAATATTAATCAAAACACACGTTGATCTTACACCGGAGTCACCTAGTGCAG,3360 fluorescence intensity (a.u.)
21,CACGCCACCACCACCAACCCATCCCAATCTCTCTCTCTCTCGGAGTCACCTAGTGCAG,19800 fluorescence intensity (a.u.)

# Taken from above.
# In binding signal, CGCCGCCGCCAAAGCCGCAAGCCAAAAGGGGAACACCCGCCGGAGTCACCTAGTGCAG shows 27800 fluorescence intensity (a.u.)
# In binding signal, TGGCATGCATGACACTAAAGTCATCATCTTAGTGCGCATACGGAGTCACCTAGTGCAG shows 3390 fluorescence intensity (a.u.)

# (further entries)

row,Sequence,binding signal
1,CGAGCCTAGCCCCACCACCTAGATGCTACTTTGATCAACCCGGAGTCACCTAGTGCAG,11700 fluorescence intensity (a.u.)
2,AAAACATAGCACACGAATTATCCACCACAGCCACCATCGACGGAGTCACCTAGTGCAG,3300 fluorescence intensity (a.u.)
3,TCCAAAATATTAGCATGGCACAGATTGGCACTACCCTTGTCGGAGTCACCTAGTGCAG,3280 fluorescence intensity (a.u.)
4,GTCAAATTAGCCACGTATGCGCCACGACAGCTAAAATCACCGGAGTCACCTAGTGCAG,14200 fluorescence intensity (a.u.)
5,CTACCATCTATCATGTGTGCGTGTGAATTGTGATGCAGAACGGAGTCACCTAGTGCAG,4600 fluorescence intensity (a.u.)
6,ATCCGGCCCGATTTGGCGGAGGGATTCGAACGCGGCGTATCGGAGTCACCTAGTGCAG,3190 fluorescence intensity (a.u.)
7,TCACGTTCAACGTTTGACTGTTCGTCTTATTTAAAATTTTCGGAGTCACCTAGTGCAG,3700 fluorescence intensity (a.u.)
8,CTCGCAGACACGACACGCCACGCCACGATAAGCCAAGACGCGGAGTCACCTAGTGCAG,4270 fluorescence intensity (a.u.)
9,GGATTGACGGGGACGCGGTGGTGGCGCCAACGGATGGACGCGGAGTCACCTAGTGCAG,6220 fluorescence intensity (a.u.)
10,AGCATTCCACGGAAAGGGAATCGTATTCGTCTCTCGTCACCGGAGTCACCTAGTGCAG,3220 fluorescence intensity (a.u.)
11,CAGCTGTTTCCTGAAATCTTGCCCCAGGGAAAACACTAGCCGGAGTCACCTAGTGCAG,20300 fluorescence intensity (a.u.)
12,CCCTCTCTCTCATGGCTGCTGCTTGCCTGGCTAGCTAGCTCGGAGTCACCTAGTGCAG,3610 fluorescence intensity (a.u.)
13,GGATCAAAACTTATCCGCGTCATCCATCTCCTTGCCCTTACGGAGTCACCTAGTGCAG,9290 fluorescence intensity (a.u.)
14,AAAGCCAGAAGAGCCCATGACTCATCTTAGGTGGGCCATGCGGAGTCACCTAGTGCAG,7620 fluorescence intensity (a.u.)
15,CTGCCTGCCTTGCTTGCCACCTATCCCAGCGCCTCTTCCACGGAGTCACCTAGTGCAG,3220 fluorescence intensity (a.u.)
16,AAGTGATACGTAGTAGCATACTATTTCCATGAAGCGTGTACGGAGTCACCTAGTGCAG,3950 fluorescence intensity (a.u.)
17,TTAAGAATGTTTGCCACGATAGCGTGACAGGCAGCGAGCACGGAGTCACCTAGTGCAG,3190 fluorescence intensity (a.u.)
18,GGGCATCGTAGTCGTACCCGATAAGCCACGTATCCGGCCTCGGAGTCACCTAGTGCAG,6840 fluorescence intensity (a.u.)
19,TTTTCCTATGACGCACTACTTGTTAGCTACTCCTCATGCACGGAGTCACCTAGTGCAG,4500 fluorescence intensity (a.u.)
20,AATACAGGTTCTTGAGCTTGTCAGCTTCCAACCAAAGCAACGGAGTCACCTAGTGCAG,29300 fluorescence intensity (a.u.)
21,CGGCTGAAATCGTCCACGCAAACACCGTCCAGAATCGCGCCGGAGTCACCTAGTGCAG,3640 fluorescence intensity (a.u.)
